From publication PMC10163288
Some of the results follow.

B1: il2ra_site2_2erj_normal_mot_HHH_b1_02466_000000018_0001_22_38_H_._HHH_b1_06888_0001_0000200008_0000001_0 (protein)
chain: SSSSDEELRREVEELLEEIKRLSPEEVNRLLQEIMKLLEELGDPEIHRLAWEALEILARLRSSSS
B2: il2ra_site1_3nfp_sap_13_mot_HHH_b2_07180_000000236_0001_22_38_H_._HHH_b1_06361_0001_0000100007_0000001_0_0001_af2pred_0001_af2pred_1_swapped (protein)
chain: SSSSTDRLKEFAELAREVSKLIQEGDEEEAKKLLEELERLAEEANSRVAKLLVEHLEEKLGSSSS
B3: il2ra_site1_3nfp_normal_mot_7f2fc9564206058543fe500fefea0e08_0001_000000219_0001_1_13_H_._3f99faf52545b03be78200a5c604c070_0001_1_0001_0000200023_0000001_0_1_af … (protein)
chain: SAVEELVERLEERGRIPPELAELLQEVIEKAHEKGDPRLLKLLQEALELAKRDPEKAREVVEKAT
B4: il2ra_site1_1z92_normal_mot_HHH_b2_02821_000000266_0001_1_19_H_._HHH_b1_08462_0001_0000100009_0000001_0 (protein)
chain: SSSSSSAEWAFELAELLLKTAERLGNERSLERVEFVLRQLRLLGDEELVEELQELLERVTSSSSS
B5: il2ra_site1_3nfp_sap_19_mot_092036b618aed672410521e3cd842e06_0001_1_af2_000000145_0001_16_32_H_._05e43983d6d416f7770a7ecfe97503de_0001_0001_0000100003_0000001_0 … (protein)
chain: SSSSDEEEREFLELAHELTKAWREGDKELAEELVRQAIELAEKLNDEKAKRVLEWLLEQFSSSSS
B6: il2ra_site1_3nfp_sap_8_mot_HHH_b2_06193_000000064_0001_1_20_H_._HHH_b2_06395_0001_0000200001_0000001_0_0001 (protein)
chain: SEEEVRKLLKEILQNPDPHEVERLLEELLKELEERGDPAARFVRQDLRHVRKMLEHAKESFEKSP
B7: il2ra_site2_3nfp_normal_mot_HHH_b1_03516_af2_000000045_0001_38_52_H_._HHH_b1_06009_0001_0000200012_0000001_0 (protein)
chain: SSSSHREDLIRALLILAKRLVEELEDPELRRQLEELIEKLEEEGDPHIAIRLAELLNEINSSSSS
B8: il2ra_site2_2erj_normal_mot_HHH_b1_07186_000000032_0001_43_57_H_._HHH_b2_07598_0001_0000500024_0000001_1 (protein)
chain: SSSSDEEKQKELLELLAKAAEIPDPEEARKVAEEALELAEELGNEYLERYARLALRDIRESSSSS
B9: il2ra_site1_1z92_normal_mot_30aa582283ecb64a35315be28fff3e94_0001_000000110_0001_35_49_H_._HHH_b1_02999_0001_0000100009_0000001_0 (protein)
chain: SSSSDSRERTAERLVEDFVRIAGLSEEQEEKLRELAKELVEEGYSPIEIAEILEELAKRLSSSSS
B10: il2ra_site2_2erj_sap_24_mot_HHH_b1_00607_000000269_0001_21_38_H_._HHH_b2_07520_0001_0000700023_0000001_0_0001_af2pred_0001_af2pred (protein)
chain: SSSSDEALEEAARVLLRLSELLLNGNPEEAEELVEEAERRLEELGNPFVAELVRKYYERAKSSSS
B11: il2ra_site2_2erj_sap_18_mot_HHH_b1_08056_000000037_0001_43_58_H_._HHH_b1_08417_0001_0000800010_0000001_0_0001 (protein)
chain: SSSSSDEEEEVEELLEEAKHIEDPEEALKVLSRAFEVAFEAGDPELASKVIKLAHELIRGSSSSS
B12: il2ra_site2_3nfp_normal_mot_HHH_b2_00429_000000100_0001_21_37_H_._HHH_b1_03508_af2_0001_0000300024_0000001_0 (protein)
chain: SSSSDEERLEKLLEEIEEAVRRGDEELFRKLAAELSHLIYELGDHEAFHLLADLLFKFAQGSSSS
B13: il2ra_site2_3nfp_normal_mot_HHH_b1_08097_000000036_0001_22_39_H_._HHH_b1_07967_0001_0000100011_0000001_0 (protein)
chain: SSSSDVEERLKELLEELQELSRKRDEEEFRRVAREIIQLVYENNDHEAFALLADIIFEFLGSSSS
B14: il2ra_site1_3nfp_sap_11_mot_9e5a4332513ba949eb20fa21f8df9fd0_0001_1_000000261_0001_36_51_H_._HHH_b1_04058_0001_0000700043_0000001_0_0001 (protein)
chain: SSSSTQEAAKLFHEAWRIAAELDDHEAAQRIYELMRRVIRTGDPELEEELRELFEELEERGSSSS
B15: il2ra_site2_2erj_normal_mot_HHH_b1_08185_000000063_0001_41_55_H_._HHH_b1_01940_0001_0000100005_0000001_0_af2pred_0001_1_af2pred_swapped (protein)
chain: SSSSTEVEHEVNELVFEADQLAEEGNPEEARKVLEEALEIAEENGNPRLQAFLRQSLKRLSSSSS
B16: il2ra_site2_2erj_normal_mot_HHH_b2_01275_af2_000000073_0001_23_39_H_._HHH_b2_01451_af2_0001_0000100001_0000001_0 (protein)
chain: SSSSSEELRRLYKLAVRLLRLLSEGDEEQLEEILEEIEELAEKLQSETAEELLRHVKERLSSSSS
B17: il2ra_site2_3nfp_normal_mot_HHH_b1_02297_000000279_0001_41_58_H_._HHH_b2_05784_0001_0000400086_0000001_0 (protein)
chain: SSSSDEERVEELLEQAEEKFKRGDEEEVRKLLAEATHIAYERNDFELFALVNEVLFRLEENSSSS
B18: il2ra_site2_2erj_sap_32_mot_HHH_b1_08046_000000210_0001_39_53_H_._9954946a0e56f4654b791dc7bfda0e44_0001_1_0001_0000200003_0000001_1_0001_af2pred_0001_af2pred (protein)
chain: SSSSDLLRRVFELAEEALELIEKGDPEEVEELLREIRELAEETGNKSIELALRKLEEELGSSSSS
B19: il2ra_site1_2b5i_normal_mot_HHH_b2_04910_000000118_0001_1_19_H_._HHH_b2_04126_0001_0000400013_0000001_0_af2pred_dldesign_0_af2pred (protein)
chain: SSSSSPESVRIRELVEEAERLFKEGKEEEARRVLEEALRIARAANDASAVKYLEALLKQLSSSSS
B20: il2ra_site1_2b5i_normal_mot_2cbe48e66a1f39b3fed734b245ab0a04_0001_000000015_0001_17_31_H_._HHH_b2_00579_0001_0000300020_0000001_1 (protein)
chain: SSSSSDEEREKQVRELLEEAKRIEDPHEAVRVLFRAASLAWQAGDEELLEEVEKVAREQSSSSSS
B21: il2ra_site1_3nfp_sap_15_mot_119b7766384adbe86006a62bce89dba1_0001_af2_000000059_0001_18_32_H_._603d184e1848ec444e697cdbd409e9a6_0001_1_af2_0001_0000100011_00000 … (protein)
chain: SSSSDINKRLEELHEEIIEAKERGDPELVEELLEEFEELVEEANSPVARLMLERLKEELESSSSS
B22: il2ra_site1_2b5i_normal_mot_HHH_b2_04633_000000016_0001_38_52_H_._HHH_b2_05139_0001_0000300030_0000001_0_af2pred_0001_af2pred_1 (protein)
chain: SSSSDEVFQRVYELWHRAARLHQNGNPEEARELLKEALEIAEENNDEKIREQLEEFLKKASSSSS
B23: il2ra_site2_3nfp_normal_mot_HHH_b1_00660_af2_000000090_0001_40_57_H_._HHH_b2_06895_0001_0000600025_0000001_0_af2pred_0001_af2pred (protein)
chain: SSSSDQEVRELLEEVEELLERGDYEEARRLLERAAELARQLGDFELFAEIVRLRRLLEELSSSSS
B24: il2ra_site2_3nfp_sap_20_mot_HHH_b1_07963_af2_000000042_0001_1_17_H_._HHH_b1_07089_0001_0000100005_0000001_0_0001 (protein)
chain: SSSSDEEKLEHLIEQALHAAEAHGNPEVAERIEELLEEFRRKGDPRAAIEAYKLMYEMLEGSSSS
B25: il2ra_site1_2b5i_normal_mot_HHH_b2_04910_000000118_0001_1_19_H_._HHH_b1_01633_0001_0000100002_0000001_0_af2pred_dldesign_0_af2pred (protein)
chain: SSSSSKGQEILRLFLEADKLFKEGKPEEAKKLLEEALKLAKEIKSNSLIKFIESALKQIESSSSS
B26: il2ra_site1_2b5i_normal_mot_22370d59370c406a0c205a431f537cfa_0001_af2_000000027_0001_1_31_H_._HHH_b2_07439_af2_0001_0000200015_0000001_0 (protein)
chain: SSSNNEEIREITRIVWRLRFKFNLSQEQAQELARLAAELEDRGISVEEIEEILEELAERLGSSSS
B27: il2ra_site2_2erj_sap_18_mot_HHH_b1_00133_000000007_0001_39_52_H_._HHH_b1_08152_0001_0000600018_0000001_0_0001 (protein)
chain: SSSDEEELRKVLEEIEKALEEGDVQKLNELIAEAIRLVERVNDPELLRILWELMREIHEKLSSSS
B28: il2ra_site1_3nfp_sap_14_mot_HHH_b1_02247_af2_000000083_0001_41_56_H_._HHH_b1_02540_0001_0000500010_0000001_0_0001_af2pred_0001_af2pred (protein)
chain: SSSSSDYEERVEELLEEAKRIEDPQEANKVLKEAIKLALENDDPELWKLVLRVLRELAGSSSSSS
B29: il2ra_site2_3nfp_normal_mot_ems_3hM_287_af2_000000177_0001_46_64_H_._HHH_b2_01231_af2_0001_0000800040_0000001_0_af2pred_0001_1_af2pred_swapped (protein)
chain: SSSSDEEEKEVEELLQKAKELLERGNPEEAEKVVRKAAHIAVKINNEELFMAASKLLEEIGSSSS
B30: il2ra_site1_2b5i_sap_14_mot_HHH_b2_01822_000000237_0001_40_54_H_._HHH_b2_07448_0001_0000100004_0000001_0_0001_af2pred_0001_af2pred_1 (protein)
chain: SSSSDKELNKFVAEVVDRLAEEFNLNAEQLNELIRLATRLIWRGVSPEEIEELLEKLARELSSSS
B31: il2ra_site2_3nfp_normal_mot_HHH_b1_06415_000000189_0001_43_56_H_._HHH_b1_00482_0001_0000100005_0000001_0 (protein)
chain: SSSSSRLEEFVEWILLAVRVAETERQREVIREALEHAKFRAEELNDEEAKELLREAEELLKSSSS
B32: il2ra_site1_3nfp_sap_19_mot_HHH_b1_07560_af2_000000209_0001_40_57_H_._HHH_b1_05998_0001_0000100001_0000001_0_0001 (protein)
chain: SEEEEEAEELLKRRLPPIAVRALELLARAVKEGNPNAERRLRYDEEVAEKLGDEDVVRAIELLRK
B33: il2ra_site1_1z92_normal_mot_b4c6f5f17c500cb19b718c065e23fe7c_0001_1_000000294_0001_37_51_H_._ems_ferrM_7375_0001_0000400020_0000001_0 (protein)
chain: WVTFHINGNDKKAEHLVKLAELHPQVRFEETPGNTVDIEVESPSLARDLELAAKMAGVDFEVEES
B34: il2ra_site2_2erj_normal_mot_HHH_b1_00612_000000025_0001_42_56_H_._HHH_b1_01371_af2_0001_0000700020_0000001_0 (protein)
chain: SSSSSDAWELAARASIEALELFKEGNPEEARRVLEEALEEVEELNNEAAARYLELALRELSSSSS
B35: il2ra_site2_3nfp_normal_mot_HHH_b1_01177_af2_000000173_0001_20_36_H_._HHH_b1_06332_0001_0000100004_0000001_0 (protein)
chain: SSSSTEELQRAVEYLIIAVELWGNPEVVEEAEELLEEAEKKKDKRLFSEAVHLLYRVAEELSSSS
B36: il2ra_site2_3nfp_sap_14_mot_HHH_b1_06589_000000230_0001_37_50_H_._HHH_b2_03910_0001_0000400016_0000001_0_0001_af2pred_0001_1_af2pred_swapped (protein)
chain: SSSSDEEEAEKALEQAERVLENGNPEEAEKLLKRAALLASELGDHELFARIVELFEKVRRRSSSS
B37: il2ra_site2_3nfp_normal_mot_HHH_b1_00086_000000221_0001_38_54_H_._HHH_b2_06926_0001_0000200007_0000001_0 (protein)
chain: SSSSDHSEEYLRAALLLLEEAVEEGDREAARKHTKLARQLAESNRDEEILEELERLIEELESSSS

molecular target: il2ra, P01589; assay: yeast display titration

Apparent Kd, inactive:
B1 no binding seen
B2 no binding seen
B3 no binding seen
B4 no binding seen
B5 no binding seen
B6 no binding seen
B7 no binding seen
B8 no binding seen
B9 no binding seen
B10 no binding seen
B11 no binding seen
B12 > 412 nM
B13 no binding seen
B14 no binding seen
B15 no binding seen
B16 no binding seen
B17 no binding seen
B18 no binding seen
B19 no binding seen
B20 no binding seen
B21 no binding seen
B22 no binding seen
B23 no binding seen
B24 no binding seen
B25 no binding seen
B26 no binding seen
B27 no binding seen
B28 no binding seen
B29 no binding seen
B30 no binding seen
B31 no binding seen
B32 no binding seen
B33 no binding seen
B34 no binding seen
B35 no binding seen
B36 no binding seen
B37 no binding seen
